According to patent publication US20220233594A1, “TARGETING OTUB1 IN IMMUNOTHERAPY” (Board of Regents, The University ofTexas System, priority 2019, published 2022):
Results are given in words; binding and its absence hold for the method and conditions named. Binding seen in cells or lysates may run through a third protein. Some results given as binding are weak or reduced against the parent protein; the word gives no strength.

By UniProt entry, the sequences of proteins in these tests, tags left out. Residues count along the entry.
UniProt P31749: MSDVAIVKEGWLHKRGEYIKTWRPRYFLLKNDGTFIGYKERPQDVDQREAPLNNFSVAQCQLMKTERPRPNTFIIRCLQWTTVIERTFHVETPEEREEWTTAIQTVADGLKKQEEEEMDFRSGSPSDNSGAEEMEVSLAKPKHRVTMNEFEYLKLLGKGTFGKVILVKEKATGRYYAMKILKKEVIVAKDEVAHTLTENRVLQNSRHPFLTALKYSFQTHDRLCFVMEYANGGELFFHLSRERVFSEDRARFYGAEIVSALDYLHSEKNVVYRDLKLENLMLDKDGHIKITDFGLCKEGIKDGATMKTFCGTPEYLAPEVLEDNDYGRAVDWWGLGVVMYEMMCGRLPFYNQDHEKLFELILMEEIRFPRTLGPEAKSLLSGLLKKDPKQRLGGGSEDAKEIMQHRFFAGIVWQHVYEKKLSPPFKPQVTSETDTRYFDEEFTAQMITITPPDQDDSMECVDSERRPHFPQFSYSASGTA
UniProt Q96FW1, residues 2-271: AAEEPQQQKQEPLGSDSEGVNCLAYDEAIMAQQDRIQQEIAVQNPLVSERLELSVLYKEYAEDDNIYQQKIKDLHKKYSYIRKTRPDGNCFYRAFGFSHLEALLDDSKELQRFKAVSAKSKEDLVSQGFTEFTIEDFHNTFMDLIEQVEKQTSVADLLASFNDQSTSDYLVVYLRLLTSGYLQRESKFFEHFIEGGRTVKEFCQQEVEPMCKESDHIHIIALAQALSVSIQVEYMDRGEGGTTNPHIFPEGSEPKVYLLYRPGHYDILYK

Molecular target: AKT (endogenous, in 15R-KIT T cells) (human) (UniProt P31749)
Experiment: co-immunoprecipitation of endogenous proteins from 15R-KIT T cell lysates, with and without IL-15 (FIG. 5B)

With “Otub1 (endogenous, in 15R-KIT T cells) (from UniProt Q96FW1 2-271) (enzyme)” the binding was “binds”.
